# For at least one compound, name, drawing or mass did not settle the structure.
# System: GR induced transrepression (LPS activated TNFα release)
# Assay: Glucocorticosteroid transrepression assay (LPS activated TNFα release in peripheral blood mononuclear cells)
# Type: cell-based
# Conditions: human PBMC, 10 ng/ml LPS, FIG. 1a
# Method: Using a cell-based model (human peripheral blood mononuclear cells), dexamethasone was administered to the cells and the release of TNFα was measured. After addition of the GR modulator of the present invention, the release of TNFα was again measured and compared to the amount released in the absence of the GR modulator.
# Human peripheral blood mononuclear cells were isolated and distributed in 96-well plates at a density of 2×10^5 cells/well in medium. Compounds were tested at 7 concentrations (semi-log dilutions) and prepared at 5× final assay concentration in 1.5% DMSO. Following a preincubation of 30 minutes with compounds the plates are then incubated in presence of 50 nM dexamethasone or media for 30 minutes. TNFα release was activated by overnight incubation with 10 ng/ml LPS. Human TNFα was measured using chemiluminescence detected on the SECTOR® Imager 6000 (Mesoscale). Dexamethasone was used to inhibit LPS activated TNFα release via the glucocorticoid receptor. […] In some cases, CORT-108297 was added in the absence of dexamethasone to determine if CORT-108297 inhibited LPS activated TNFα release.
compound,measurement,value
"C[C@@H]1C[C@H]2[C@@H]3CCC4=CC(=O)C=C[C@]4(C)[C@@]3(F)[C@@H](O)C[C@]2(C)[C@@]1(O)C(=O)CO [dexamethasone, reference compound]","inhibition of LPS activated TNFα release, compound alone (transrepression agonism), in words",maximal inhibition is achieved at nanomolar concentrations
